The other results are listed elsewhere or left out. Many values rest on one well or one pass, so single values are uncertain.
What was measured:
MIA PaCa-2 parental = assay: parental cell viability relative to untreated parental control; higher = more surviving cells; conditions: treatment time: 9 days
MIA PaCa-2 persister = assay: persister cell viability relative to untreated persister control; higher = more surviving persister cells; conditions: treatment time: 9 days; cell state: persister (100 nM gemcitabine + 100 nM Torin1)

Compound	parental cell viability (MIA PaCa-2 parental)	persister cell viability (MIA PaCa-2 persister)
O=C(O)C(Cc1ccccc1[N+](=O)[O-])=NNc1nc(-c2ccc(Cl)c(Cl)c2)cs1 (mixture of isomers) (inhibitor concentration: 10µM)	99%	102%
Cc1cc(Nc2cc(Cl)nc(Oc3ccc([N+](=O)[O-])cc3)n2)n[nH]1 [Autophinib] (inhibitor concentration: 1µM)	80%	10%
COCCOc1ccc2c(c1)ncn2-c1ccc2cccc(N3CCC(N)CC3)c2n1 (inhibitor concentration: 300nM)	99%	190%
COc1c(OCCCN2CCOCC2)ccc2c1N=C(NC(=O)c1cnc(N)nc1)N1CCN=C21 [Copanlisib (BAY 80-6946)] (inhibitor concentration: 1µM)	40%	94.5%
CCN1CCN(Cc2ccc(Nc3ncc(F)c(-c4cc(F)c5nc(C)n(C(C)C)c5c4)n3)nc2)CC1 [Abemaciclib] (inhibitor concentration: 300nM)	98%	200%
CNC(=O)c1ccccc1Sc1ccc2c(/C=C/c3ccccn3)n[nH]c2c1 [Axitinib] (inhibitor concentration: 3µM)	15%	104%
CC(C)C[C@@H](C=O)NC(=O)[C@H](CC(C)C)NC(=O)[C@H](CC(C)C)NC(=O)OCc1ccccc1 (inhibitor concentration: 300nM)	90%	75%
O=C(O)CSc1cc(NS(=O)(=O)c2ccc(Br)cc2)c2ccccc2c1O (inhibitor concentration: 10µM)	98.5%	96%
O=C(O)c1ccc2c(c1)nc(Nc1cccc(Cl)c1)c1ccncc12 [CX-4945/Silmitasertib] (inhibitor concentration: 3µM)	105%	61%
CC1(C)CCC(c2ccc(Cl)cc2)=C(CN2CCN(c3ccc(C(=O)NS(=O)(=O)c4ccc(N[C@H](CCN5CCOCC5)CSc5ccccc5)c(S(=O)(=O)C(F)(F)F)c4)cc3)CC2)C1 (inhibitor concentration: 3µM)	102%	5%

Individual results from the list:
Entry of Cc1cc(Nc2cc(Cl)nc(Oc3ccc([N+](=O)[O-])cc3)n2)n[nH]1 [Autophinib] (inhibitor concentration: 1µM) under persister cell viability (MIA PaCa-2 persister): 10%
Entry of COCCOc1ccc2c(c1)ncn2-c1ccc2cccc(N3CCC(N)CC3)c2n1 (inhibitor concentration: 300nM) under persister cell viability (MIA PaCa-2 persister): 190%

— the supplement of paper PMC9671908
